# From the supplement of paper PMC8728848
# This is one part of the list.
# How the values were obtained:
# Assay in all cases: glycan array binding signal (z-score within array); higher = stronger binding
# Details in all cases: glycan notation: IUPAC condensed, linker removed
# [1] = biological target: Neu5Ac(a2-3)Gal(b1-3)GlcNAc
# Method in brief: (§1)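 Glycan array data were curated from 3228 arrays in the Consortium for Functional Glycomics database and kept only where the protein sequence was available. Glycan names were converted to IUPAC-condensed notation, and columns mapping to the same glycan were averaged. The binding signal is a within-array Z-score, averaged across arrays of the same protein sequence at different concentrations or buffers and across linkers. Negative Z-scores can be read as non-binding.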
# [2] = biological target: Neu5Ac(a2-3)Gal(b1-3)GlcNAc(b1-2)Man
# Method in brief: as §1
# [3] = biological target: Neu5Ac(a2-3)Gal(b1-3)GlcNAc(b1-2)Man(a1-3)[GlcNAc(b1-4)][Neu5Ac(a2-3)Gal(b1-3)GlcNAc(b1-2)Man(a1-6)]Man(b1-4)GlcNAc(b1-4)GlcNAc
# Method in brief: as §1
# [4] = biological target: Neu5Ac(a2-3)Gal(b1-3)GlcNAc(b1-2)Man(a1-3)[Neu5Ac(a2-3)Gal(b1-3)GlcNAc(b1-2)Man(a1-6)]Man(b1-4)GlcNAc(b1-4)GlcNAc
# Method in brief: as §1
# [5] = biological target: Neu5Ac(a2-3)Gal(b1-3)GlcNAc(b1-2)[Neu5Ac(a2-3)Gal(b1-3)GlcNAc(b1-4)]Man(a1-6)[Neu5Ac(a2-3)Gal(b1-3)GlcNAc(b1-2)Man(a1-3)]Man(b1-4)GlcNAc(b1-4)GlcNAc
# Method in brief: as §1
# [6] = biological target: Neu5Ac(a2-3)Gal(b1-3)GlcNAc(b1-3)Gal(b1-3)GlcNAc
# Method in brief: as §1
# [7] = biological target: Neu5Ac(a2-3)Gal(b1-3)GlcNAc(b1-3)Gal(b1-4)GlcNAc
# Method in brief: as §1
# [8] = biological target: Neu5Ac(a2-3)Gal(b1-3)GlcNAc(b1-3)GalNAc
# Method in brief: as §1
# [9] = biological target: Neu5Ac(a2-3)Gal(b1-3)GlcNAc(b1-6)GalNAc
# Method in brief: as §1
# [10] = biological target: Neu5Ac(a2-3)Gal(b1-3)GlcNAc6S
# Method in brief: as §1
# [11] = biological target: Neu5Ac(a2-3)Gal(b1-3)[Fuc(a1-4)]GlcNAc
# Method in brief: as §1
# [12] = biological target: Neu5Ac(a2-3)Gal(b1-3)[Fuc(a1-4)]GlcNAc(b1-3)Gal(b1-3)[Fuc(a1-4)]GlcNAc
# Method in brief: as §1
# [13] = biological target: Neu5Ac(a2-3)Gal(b1-3)[Fuc(a1-4)]GlcNAc(b1-3)Gal(b1-4)[Fuc(a1-3)]GlcNAc
# Method in brief: as §1
# [14] = biological target: Neu5Ac(a2-3)Gal(b1-3)[GlcNAc(b1-6)]GalNAc
# Method in brief: as §1
# [15] = biological target: Neu5Ac(a2-3)Gal(b1-3)[Neu5Ac(a2-6)]GalNAc
# Method in brief: as §1
# [16] = biological target: Neu5Ac(a2-3)Gal(b1-3)[Neu5Ac(a2-6)]GlcNAc(b1-3)[Fuc(a1-3)[Gal(b1-4)]GlcNAc(b1-6)]Gal(b1-4)Glc
# Method in brief: as §1
# [17] = biological target: Neu5Ac(a2-3)Gal(b1-3)]Neu5Ac(a2-3)Gal(b1-4)]GlcNAc
# Method in brief: as §1
# Neu5Ac(a2-3)Gal(b1-4)Glc = biological target: Neu5Ac(a2-3)Gal(b1-4)Glc
# Method in brief: as §1
# [18] = biological target: Neu5Ac(a2-3)Gal(b1-4)GlcNAc
# Method in brief: as §1
# [19] = biological target: Neu5Ac(a2-3)Gal(b1-4)GlcNAc(b1-2)Man
# Method in brief: as §1
# [20] = biological target: Neu5Ac(a2-3)Gal(b1-4)GlcNAc(b1-2)Man(a1-3)[GlcNAc(b1-4)][Neu5Ac(a2-3)Gal(b1-4)GlcNAc(b1-2)Man(a1-6)]Man(b1-4)GlcNAc(b1-4)GlcNAc
# Method in brief: as §1
# [21] = biological target: Neu5Ac(a2-3)Gal(b1-4)GlcNAc(b1-2)Man(a1-3)[Neu5Ac(a2-3)Gal(b1-4)GlcNAc(b1-2)Man(a1-6)]Man(b1-4)GlcNAc(b1-4)GlcNAc
# Method in brief: as §1
# [22] = biological target: Neu5Ac(a2-3)Gal(b1-4)GlcNAc(b1-2)Man(a1-3)[Neu5Ac(a2-3)Gal(b1-4)GlcNAc(b1-2)Man(a1-6)]Man(b1-4)GlcNAc(b1-4)[Fuc(a1-6)]GlcNAc
# Method in brief: as §1
# [23] = biological target: Neu5Ac(a2-3)Gal(b1-4)GlcNAc(b1-2)Man(a1-3)[Neu5Ac(a2-6)Gal(b1-4)GlcNAc(b1-2)Man(a1-6)]Man(b1-4)GlcNAc(b1-4)GlcNAc
# Method in brief: as §1
# [24] = biological target: Neu5Ac(a2-3)Gal(b1-4)GlcNAc(b1-2)[Neu5Ac(a2-3)Gal(b1-4)GlcNAc(b1-4)]Man(a1-3)[GlcNAc(b1-4)][Neu5Ac(a2-3)Gal(b1-4)GlcNAc(b1-2)[Neu5Ac(a2-3)Gal(b1-4)GlcNAc(b1-6)]Man(a1-6)]Man(b1-4)GlcNAc(b1-4)GlcNAc
# Method in brief: as §1
# [25] = biological target: Neu5Ac(a2-3)Gal(b1-4)GlcNAc(b1-2)[Neu5Ac(a2-3)Gal(b1-4)GlcNAc(b1-4)]Man(a1-3)[GlcNAc(b1-4)][Neu5Ac(a2-3)Gal(b1-4)GlcNAc(b1-4)Man(a1-6)]Man(b1-4)GlcNAc(b1-4)GlcNAc
# Method in brief: as §1
# [26] = biological target: Neu5Ac(a2-3)Gal(b1-4)GlcNAc(b1-2)[Neu5Ac(a2-3)Gal(b1-4)GlcNAc(b1-6)]Man(a1-6)[Neu5Ac(a2-3)Gal(b1-4)GlcNAc(b1-2)Man(a1-3)][GlcNAc(b1-4)]Man(b1-4)GlcNAc(b1-4)GlcNAc
# Method in brief: as §1
# [27] = biological target: Neu5Ac(a2-3)Gal(b1-4)GlcNAc(b1-3)Gal
# Method in brief: as §1
# [28] = biological target: Neu5Ac(a2-3)Gal(b1-4)GlcNAc(b1-3)Gal(b1-3)GlcNAc
# Method in brief: as §1
# [29] = biological target: Neu5Ac(a2-3)Gal(b1-4)GlcNAc(b1-3)Gal(b1-4)GlcNAc
# Method in brief: as §1
# [30] = biological target: Neu5Ac(a2-3)Gal(b1-4)GlcNAc(b1-3)Gal(b1-4)GlcNAc(b1-2)Man(a1-3)[Neu5Ac(a2-3)Gal(b1-4)GlcNAc(b1-3)Gal(b1-4)GlcNAc(b1-2)Man(a1-6)]Man(b1-4)GlcNAc(b1-4)GlcNAc
# Method in brief: as §1
# [31] = biological target: Neu5Ac(a2-3)Gal(b1-4)GlcNAc(b1-3)Gal(b1-4)GlcNAc(b1-3)Gal(b1-4)GlcNAc
# Method in brief: as §1
# [32] = biological target: Neu5Ac(a2-3)Gal(b1-4)GlcNAc(b1-3)Gal(b1-4)GlcNAc(b1-3)Gal(b1-4)GlcNAc(b1-2)Man(a1-3)[Neu5Ac(a2-3)Gal(b1-4)GlcNAc(b1-3)Gal(b1-4)GlcNAc(b1-3)Gal(b1-4)GlcNAc(b1-2)Man(a1-6)]GalNAc
# Method in brief: as §1
# [33] = biological target: Neu5Ac(a2-3)Gal(b1-4)GlcNAc(b1-3)Gal(b1-4)GlcNAc(b1-3)GalNAc
# Method in brief: as §1
# [34] = biological target: Neu5Ac(a2-3)Gal(b1-4)GlcNAc(b1-3)Gal(b1-4)GlcNAc(b1-3)[Neu5Ac(a2-3)Gal(b1-4)GlcNAc(b1-3)Gal(b1-4)GlcNAc(b1-6)]GalNAc
# Method in brief: as §1
# [35] = biological target: Neu5Ac(a2-3)Gal(b1-4)GlcNAc(b1-3)Gal(b1-4)GlcNAc(b1-6)[Gal(b1-3)]GalNAc
# Method in brief: as §1
# [36] = biological target: Neu5Ac(a2-3)Gal(b1-4)GlcNAc(b1-3)Gal(b1-4)[Fuc(a1-3)]GlcNAc
# Method in brief: as §1
# [37] = biological target: Neu5Ac(a2-3)Gal(b1-4)GlcNAc(b1-3)GalNAc
# Method in brief: as §1
binder,measurement,setting,value
Epa2 (Candida glabrata) (protein) MGSSHHHHHHSSGLVPRGSHMASSKDPTSFPMGCSPQVLKTQPGLAVKLYSYGHPVPGCAYNTYQYPDFPRSGYKKERKLADITGVNGRIDIDLKPNDPCRVLSGNLPSNYNYQNTLTYTNFTMILYGYFQPKVTGYHTFNLEADDLLFMNLGAGNAFDCCRAESTLDNFGNYQSYSIWGTDKATADLTVFLVSGIYYPIRLFYVNRDNNAVLDFSFSTEFNKEIIHDFTSYFFSASDEEQCPGNI,glycan array binding signal (z-score),[1],-0.578
same,glycan array binding signal (z-score),[2],-0.267
same,glycan array binding signal (z-score),[3],0.217
same,glycan array binding signal (z-score),[4],-0.465
same,glycan array binding signal (z-score),[5],-0.334
same,glycan array binding signal (z-score),[6],-0.39
same,glycan array binding signal (z-score),[7],-0.497
same,glycan array binding signal (z-score),[8],-0.475
same,glycan array binding signal (z-score),[9],0.976
same,glycan array binding signal (z-score),[10],0.604
same,glycan array binding signal (z-score),[11],-0.367
same,glycan array binding signal (z-score),[12],-0.034
same,glycan array binding signal (z-score),[13],0.337
same,glycan array binding signal (z-score),[14],-0.044
same,glycan array binding signal (z-score),[15],-0.424
same,glycan array binding signal (z-score),[16],0.369
same,glycan array binding signal (z-score),[17],1.05
same,glycan array binding signal (z-score),Neu5Ac(a2-3)Gal(b1-4)Glc,0.776
same,glycan array binding signal (z-score),[18],-0.161
same,glycan array binding signal (z-score),[19],3.5
same,glycan array binding signal (z-score),[20],-1.24
same,glycan array binding signal (z-score),[21],0.022
same,glycan array binding signal (z-score),[22],-0.348
same,glycan array binding signal (z-score),[23],-0.194
same,glycan array binding signal (z-score),[24],-0.09
same,glycan array binding signal (z-score),[25],0.075
same,glycan array binding signal (z-score),[26],0.174
same,glycan array binding signal (z-score),[27],-0.834
same,glycan array binding signal (z-score),[28],-0.156
same,glycan array binding signal (z-score),[29],0.946
same,glycan array binding signal (z-score),[30],0.377
same,glycan array binding signal (z-score),[31],0.091
same,glycan array binding signal (z-score),[32],2.23
same,glycan array binding signal (z-score),[33],0.48
same,glycan array binding signal (z-score),[34],0.616
same,glycan array binding signal (z-score),[35],-1.15
same,glycan array binding signal (z-score),[36],-0.243
same,glycan array binding signal (z-score),[37],0.263

# Part of the list above, bar-delimited.
binder | measurement | setting | value
Epa2 (Candida glabrata) (protein) MGSSHHHHHHSSGLVPRGSHMASSKDPTSFPMGCSPQVLKTQPGLAVKLYSYGHPVPGCAYNTYQYPDFPRSGYKKERKLADITGVNGRIDIDLKPNDPCRVLSGNLPSNYNYQNTLTYTNFTMILYGYFQPKVTGYHTFNLEADDLLFMNLGAGNAFDCCRAESTLDNFGNYQSYSIWGTDKATADLTVFLVSGIYYPIRLFYVNRDNNAVLDFSFSTEFNKEIIHDFTSYFFSASDEEQCPGNI | glycan array binding signal (z-score) | [1] | -0.578
same | glycan array binding signal (z-score) | [34] | 0.616
